Laboratory results taken from publication PMC13261057.
These are yes or no findings as the source states them, for the method shown. In cells and extracts the contact can be indirect. Some results given as binding are weak or reduced against the parent protein; the word gives no strength.

Protein sequences, listed by entry. Tags and fused reporters are not part of them.
UniProt Q9BQQ3: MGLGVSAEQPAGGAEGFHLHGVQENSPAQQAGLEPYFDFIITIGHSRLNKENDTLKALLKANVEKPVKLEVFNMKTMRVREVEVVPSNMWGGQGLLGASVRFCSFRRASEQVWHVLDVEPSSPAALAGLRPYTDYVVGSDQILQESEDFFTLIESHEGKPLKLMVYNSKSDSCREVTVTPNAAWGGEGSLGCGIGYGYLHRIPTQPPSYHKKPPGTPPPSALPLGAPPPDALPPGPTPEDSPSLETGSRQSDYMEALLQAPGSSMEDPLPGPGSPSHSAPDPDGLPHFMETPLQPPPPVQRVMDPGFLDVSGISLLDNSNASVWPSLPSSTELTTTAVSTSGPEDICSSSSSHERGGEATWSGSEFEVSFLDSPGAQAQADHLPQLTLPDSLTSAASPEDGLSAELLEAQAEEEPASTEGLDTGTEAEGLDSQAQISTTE
UniProt Q9H4A6: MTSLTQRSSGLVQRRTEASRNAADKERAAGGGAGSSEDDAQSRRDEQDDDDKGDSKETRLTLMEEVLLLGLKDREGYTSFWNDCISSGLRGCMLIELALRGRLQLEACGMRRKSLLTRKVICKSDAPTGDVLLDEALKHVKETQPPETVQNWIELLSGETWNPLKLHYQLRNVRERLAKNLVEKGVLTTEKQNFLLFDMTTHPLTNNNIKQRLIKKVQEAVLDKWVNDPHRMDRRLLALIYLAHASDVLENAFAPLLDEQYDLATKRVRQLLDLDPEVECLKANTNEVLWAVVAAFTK

B1: LYSET (protein, UniProt Q8N6I4 1-163)
chain: MPKPPDYSELSDSLTLAVGTGRFSGPLHRAWRMMNFRQRMGWIGVGLYLLASAAAFYYVFEISETYNRLALEHIQQHPEEPLEGTTWTHSLKAQLLSLPFWVWTVIFLVPYLQMFLFLYSCTRADPKTVGYCIIPICLAVICNRHQAFVKASNQISRLQLIDT

Biological target: GRASP65 (human (endogenous in WI-26)) (UniProt Q9BQQ3)
Assay: co-IP; WI-26 cells transfected with a GNPTAB-Myc vector, lysed 24 h later in Triton lysis buffer (50 mM Tris-HCl pH 7.5, 1% Triton X-100, 150 mM NaCl); IP with mouse monoclonal anti-GRASP55, anti-GRASP65 or anti-Myc for 3-4 h at 4 °C, protein G agarose overnight, 4 washes; immunoblot (Fig. 7D)

Molecule | binding
Myc-tagged GNPTAB (GlcNAc-1-phosphotransferase alpha/beta precursor) (from UniProt Q3T906-1 1-1256) | no binding
GOLPH3 (from UniProt Q9H4A6 1-298) | binds
B1 | no binding
